# Results taken from patent publication US20200038383A1, “IMMEDIATE-RELEASE ABUSE DETERRENT CO[…] MEDICAMENTS FOR TREATING PAIN, ADD, ADHD AND OTHER SYNDROMES OR DISORDERS” (KEMPHARM, INC., priority 2016, published 2020).
# Assay: Oral dose escalation study in rats
# Conditions: oral solutions, escalating dosages
smiles,measurement,value
"CN1CC[C@]23c4c5ccc(O)c4O[C@H]2C(=O)CC[C@H]3[C@H]1C5.Cl [hydromorphone hydrochloride, reference compound]",exposure (AUC) to hydromorphone at doses above the therapeutic level,approximately dose proportional
